Results deposited as PubChem BioAssay AID504791 (Drosophila RNAi Screening Center, 2011).
In all, the deposit lists about 23,000 reagents; shown is an unselected part of those with a known target gene and a result. Of all reagents, 199 (0.86%) are marked active. 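Plate-scaled ratios behind the calls are not deposited; printed light signals are raw; many rows marked increased or decreased are still called inactive.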 Names joined by + are all predicted targets of the reagent. No sequences are given here. Not given: the direction of the score.

Aim: 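Genes of the fly required for silencing by miRNA, siRNA or endo-siRNA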 (primary screen)
Cell system: Drosophila S2-derived reporter cells
Reagent: long dsRNA against Drosophila genes, about 150-250 ng dsRNA per well (siRNA assay); about 80-120 ng (miRNA assay)
Duration: about 5 days (siRNA assay); about 4 days (miRNA assay)
Treatment: copper sulfate induction of reporters: 25 µM (siRNA assay); 200 mM stated (miRNA assay), 1-2 days before reading
Detection: 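Dual luciferase assay: Renilla to firefly signal ratio in each well, scaled to the mean ratio of its plate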
Units: stable assay Renilla, run 1 in luminescence; stable assay firefly, run 1 in luminescence
Active means: 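First-pass picks had plate-scaled ratios over 1.5 for the siRNA assay, over 1.6 for the miRNA assay, or under 0.6; two distinct dsRNAs had to score alike on retest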

CG9215 [DRSC20171]: stable assay Renilla, run 1 = 5864; stable assay firefly, run 1 = 3.94e5; activity call = inactive
Cyt-c1L [DRSC14860]: stable assay Renilla, run 1 = 6207; stable assay firefly, run 1 = 5.47e5; activity call = inactive
Cyt-c1L [DRSC22096]: stable assay Renilla, run 1 = 9223; stable assay firefly, run 1 = 5.13e5; activity call = inactive
nAChRalpha4 [DRSC11925]: stable assay Renilla, run 1 = 5803; stable assay firefly, run 1 = 5.03e5; activity call = inactive
CG11893 [DRSC14429]: stable assay Renilla, run 1 = 6887; stable assay firefly, run 1 = 3.17e5; activity call = inactive
Syx4 [DRSC18586]: stable assay Renilla, run 1 = 7312; stable assay firefly, run 1 = 4.06e5; activity call = inactive
CG3618 [DRSC11746]: stable assay Renilla, run 1 = 8335; stable assay firefly, run 1 = 3.41e5; activity call = inactive
Osi24 [DRSC12275]: stable assay Renilla, run 1 = 6868; stable assay firefly, run 1 = 3.27e5; activity call = inactive
CG32719 [DRSC17525]: stable assay Renilla, run 1 = 5024; stable assay firefly, run 1 = 3.48e5; activity call = inactive
koi [DRSC04980]: stable assay Renilla, run 1 = 6350; stable assay firefly, run 1 = 3.66e5; activity call = inactive
CG33007 (retired record) [DRSC21845]: stable assay Renilla, run 1 = 9168; stable assay firefly, run 1 = 8.44e5; activity call = inactive
Snx3 [DRSC16027]: stable assay Renilla, run 1 = 6667; stable assay firefly, run 1 = 3.82e5; activity call = inactive
CG42516 + Pbp49 [DRSC06073]: stable assay Renilla, run 1 = 9419; stable assay firefly, run 1 = 3.49e5; activity call = inactive
CG13055 [DRSC09936]: stable assay Renilla, run 1 = 5672; stable assay firefly, run 1 = 2.86e5; activity call = inactive
CG43897 [DRSC10965]: stable assay Renilla, run 1 = 3956; stable assay firefly, run 1 = 1.62e5; activity call = inactive
CG43897 [DRSC10967]: stable assay Renilla, run 1 = 5692; stable assay firefly, run 1 = 3.41e5; activity call = inactive
CG43897 [DRSC21583]: stable assay Renilla, run 1 = 3244; stable assay firefly, run 1 = 3.80e5; activity call = inactive
RpS13 [DRSC03419]: miRNA reporter change = reporter ratio lowered past the hit cutoff; stable assay Renilla, run 1 = 10862; stable assay firefly, run 1 = 6.79e5; activity call = active
CG8312 [DRSC16406]: stable assay Renilla, run 1 = 5702; stable assay firefly, run 1 = 4.16e5; activity call = inactive
CG7794 [DRSC16313]: stable assay Renilla, run 1 = 7875; stable assay firefly, run 1 = 3.11e5; activity call = inactive
Plc21C [DRSC00773]: stable assay Renilla, run 1 = 11874; stable assay firefly, run 1 = 3.59e5; activity call = inactive
Herp [DRSC02394]: stable assay Renilla, run 1 = 40732; stable assay firefly, run 1 = 4.75e5; activity call = inactive
lncRNA:CR40629 [DRSC20959]: stable assay Renilla, run 1 = 5207; stable assay firefly, run 1 = 5.19e5; activity call = inactive
TrissinR [DRSC02334]: stable assay Renilla, run 1 = 8159; stable assay firefly, run 1 = 4.66e5; activity call = inactive
TrissinR [DRSC02335]: stable assay Renilla, run 1 = 9694; stable assay firefly, run 1 = 4.22e5; activity call = inactive
TrissinR [DRSC02336]: stable assay Renilla, run 1 = 9039; stable assay firefly, run 1 = 4.51e5; activity call = inactive
CG4953 [DRSC02792]: stable assay Renilla, run 1 = 29392; stable assay firefly, run 1 = 8.28e5; activity call = inactive
CG17202 [DRSC15194]: stable assay Renilla, run 1 = 4335; stable assay firefly, run 1 = 2.20e5; activity call = inactive
CG17202 [DRSC23073]: stable assay Renilla, run 1 = 4468; stable assay firefly, run 1 = 3.99e5; activity call = inactive

Targets above whose target name starts with S or s (2):
Syx4 [DRSC18586]: stable assay Renilla, run 1 = 7312; stable assay firefly, run 1 = 4.06e5; activity call = inactive
Snx3 [DRSC16027]: stable assay Renilla, run 1 = 6667; stable assay firefly, run 1 = 3.82e5; activity call = inactive
